We go through one substance from article PMC6366968.

The chains behind the UniProt entries cited, without tags or fusion partners.
UniProt Q14457: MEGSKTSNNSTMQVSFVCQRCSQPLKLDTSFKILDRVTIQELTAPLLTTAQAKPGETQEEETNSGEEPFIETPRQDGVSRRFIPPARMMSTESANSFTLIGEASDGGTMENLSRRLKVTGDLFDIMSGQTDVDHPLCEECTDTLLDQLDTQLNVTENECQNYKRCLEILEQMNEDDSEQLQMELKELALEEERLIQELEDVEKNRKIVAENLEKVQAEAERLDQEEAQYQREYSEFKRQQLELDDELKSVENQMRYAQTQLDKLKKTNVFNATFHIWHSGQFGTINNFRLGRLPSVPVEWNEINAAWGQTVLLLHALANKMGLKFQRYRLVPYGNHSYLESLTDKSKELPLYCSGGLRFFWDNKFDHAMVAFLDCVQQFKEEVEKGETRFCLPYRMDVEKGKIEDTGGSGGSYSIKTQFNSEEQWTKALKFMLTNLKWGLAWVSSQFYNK

This assay deals with T1, BCL2L10 (human (endogenous in Hep3B)) (UniProt Q9HD36).
T1 sequence: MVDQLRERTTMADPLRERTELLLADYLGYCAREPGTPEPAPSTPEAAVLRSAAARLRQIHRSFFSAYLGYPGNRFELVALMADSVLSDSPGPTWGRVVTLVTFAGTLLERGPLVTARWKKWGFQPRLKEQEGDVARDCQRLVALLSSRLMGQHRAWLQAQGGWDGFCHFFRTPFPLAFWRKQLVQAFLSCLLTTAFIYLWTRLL
In words: co-IP; Hep3B cells (NC, pcDNA3.1-BCL2L10 or si-BCL2L10) in complete medium (CM) or EBSS starvation medium for 6 h; EBC lysis buffer; BCL2L10 precipitated, Beclin 1 detected by Western blot. A general note: A western blot detects proteins with antibodies after separation by electrophoresis.

No constants are given. Whether binding was seen depends on the method and setting. Binding seen in cells or lysates may run through a third protein. Some entries that bind do so weakly or less than the wild type.

Beclin 1 (from UniProt Q14457 1-450): the binding entry was “binds”.
